# Screen size: about 400,000 compounds; about 13,000 (3.2%) were called active. Inconclusive means that the source gave no clear call. Such entries were picked first, then a sample of the others. Calls come from the whole dose curve; as a rule, active = well fitted cell-killing curve with a large enough effect; inconclusive = small, poorly fitted or top-dose-only effect, or effect the other way; inactive = flat fitted curve, though single readings scatter. A potency beside an inconclusive call is a rough fit, not a confirmed value.
# Assay: qHTS assay for MDR1-selective chemotherapeutics: Primary screen using the drug-selected MDR subline cells KB-V1; note: nearly all actives have a fitted effect of over 60% in size
# Settings: KB-V1 MDR cells viability, CellTiter-Glo, 72 h; activity change, negative = cytotoxicity: at 46.1 µM (top of the series)
# Procedure, shortened: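 Cytotoxicity toward P-gp-expressing KB-V1 cells was determined as loss of CellTiter-Glo luminescence after 72 h at 37 degrees C. Compounds were tested in quantitative HTS format across a concentration range, with curves fitted to normalized data.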
# % is set by controls: 0 for no effect and ±100 for the full control effect; potency is the fitted concentration of half-maximal effect.
SMILES,"activity change, negative = cytotoxicity",Potency
CCc1ccccc1S(=O)(=O)Cc1ccc(C(=O)NCc2cccs2)o1,inactive: -2.86%,–
Cc1cccn2c(=O)c(/C=C(\C#N)C(=O)NC3CCS(=O)(=O)C3)c(N3CCC(C)CC3)nc12 (stereo not given),inactive: -21%,–
Cc1ccc2c(c1)C1CN(C)CCC1N2C(=O)c1cccc(S(=O)(=O)N(C)C)c1 (stereo not given),–,"inconclusive: 16.4 µM [cytotoxic, partial curve, poor fit]"
O=C(/C=C/c1ccc(S(=O)(=O)N2CCOCC2)cc1)N1CCN(c2ccccc2)CC1,inactive: 1.04%,–
O=CC(=O)c1ccccc1,inactive: -3.4%,–
O=C(Nc1cc2c3c(c1)CC(=O)N3CCC2)c1ccc(Br)o1,–,"inconclusive: 16.4 µM [cytotoxic, single point]"
COc1ccc(N2CCN(CCOc3ccc4c(C)cc(=O)oc4c3)CC2)cc1,–,"inconclusive: 11.6 µM [cytotoxic, partial curve, poor fit]"
CCOC(=O)C(=Cc1ccc(OCc2ccc([N+](=O)[O-])cc2)c(OC)c1)C(=O)OCC,–,active: 20.6 µM
COc1ccc(Br)cc1CNC(=O)Nc1cccs1,–,"inconclusive: 29.1 µM [cytotoxic, single point]"
Cc1nn(-c2ccc(N3CCCCC3)nn2)c(C)c1CCC(=O)Nc1ccc(F)cc1,–,"inconclusive: 16.4 µM [cytotoxic, single point]"
Cc1ccccc1NC(=O)CCc1c(C)nn(-c2ccc(N3CCCCC3)nn2)c1C,inactive: -13%,–
N#CCCCc1cn(-c2nc3ccccc3s2)nn1,–,"inconclusive: 16.4 µM [cytotoxic, partial curve, poor fit]"
CCc1ccc2[nH]c(=O)c(CN(Cc3nnnn3C3CCCC3)C3CCCCC3)cc2c1,inactive: -14.8%,–
CCOC(=O)c1nn(-c2ccc(C)cc2)c(C)c1C(C)=O,inactive: -0.0542%,–
O=C(CSc1nnc(-c2ccco2)n1Cc1ccccc1)OC1CCCCC1,–,"inconclusive: 20.6 µM [cytotoxic, single point]"
CCCS(=O)(=O)N1CCCC(C(=O)Nc2ccc3c(c2)CCC3)C1 (stereo not given),–,"inconclusive: 2.59 µM [cytotoxic, partial curve]"
CSc1ncc(CN2CCC(C(=O)Nc3cccc(-c4cscn4)c3)CC2)cn1,–,"inconclusive: 5.8 µM [cytotoxic, partial curve, poor fit]"
Cc1ccc(-n2c(=O)c3c4c(sc3n(Cc3ccccc3F)c2=O)CCC4)cc1C,inactive: 14%,–
COc1ccccc1C(=O)N1CCN(c2cccc(Cl)c2)CC1,–,"inconclusive: 1.46 µM [cytotoxic, full curve, poor fit]"
Cc1ccc(Cl)cc1NC(=S)N(C)N,–,"inconclusive: 6.51 µM [rising, partial curve]"

# Shown with tabs: three of the compounds above.
SMILES	activity change, negative = cytotoxicity	Potency
O=C(Nc1cc2c3c(c1)CC(=O)N3CCC2)c1ccc(Br)o1	–	inconclusive: 16.4 µM [cytotoxic, single point]
COc1ccc(N2CCN(CCOc3ccc4c(C)cc(=O)oc4c3)CC2)cc1	–	inconclusive: 11.6 µM [cytotoxic, partial curve, poor fit]
CCOC(=O)C(=Cc1ccc(OCc2ccc([N+](=O)[O-])cc2)c(OC)c1)C(=O)OCC	–	active: 20.6 µM
